Assay results: PubChem BioAssay AID504467 (National Center for Advancing Translational Sciences (NCATS), 2011)
The whole screen tested about 330,000 compounds, of which about 7,700 (2.3%) were called active. Inconclusive means that the source gave no clear call. Such entries were picked first, then a sample of the others. The call rests on the fitted dose curve; in most records, active means well fitted inhibition curve with a large enough effect; inconclusive means small, poorly fitted or top-dose-only effect, or effect the other way; inactive means flat fitted curve, though single readings scatter. Where the call is inconclusive, the potency comes from a doubtful curve fit.

test: qHTS screen for small molecules that inhibit ELG1-dependent DNA repair in human embryonic kidney (HEK293T) cells expressing luciferase-tagged ELG1; conditions: HEK293T ELG1-luciferase reporter, luminescence, 16 h, DNA damage induced by 5-fluorouridine; series mostly up to 46.1 µM; further: nearly all actives have a fitted effect of over 55% in size
Summary of the method: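 Reporter activity after DNA damage by 5-fluorouridine is monitored. Compound-treated cells incubate 16 hr at 37 °C, then ONE-Glo is added for 30 min before luminescence reading.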
Potency means the concentration at half of the fitted maximal effect.

Row | SMILES | Potency
1 | Oc1ccc(F)c2cccnc12 | inactive
2 | CC(C)c1ccc(N(C(=O)CNC(=O)c2ccco2)C(C(=O)NC2CCCC2)c2cccnc2)cc1 (stereo not given) | inactive
3 | COc1cccc(/C=N/n2c(=O)[nH]c3ccccc32)c1OC | inconclusive: 8.2 µM [activator, partial curve]
4 | COc1cc(C(=O)NC2=C(C#N)CCC2)cc(OC)c1OC | inconclusive: 23.1 µM [inhibitor, single point]
5 | CCOc1ccc2oc(C(=O)NNC(=O)c3ccccc3O)c(C)c2c1 | inactive
6 | O=C(Oc1c(-c2ccccc2)oc2ccccc2c1=O)c1ccccc1 | inactive
7 | COc1cccc(-c2noc(C3CCCN(C(=O)c4ccc(F)cc4)C3)n2)c1 (stereo not given) | inconclusive: 23.1 µM [activator, partial curve, poor fit]
8 | S=C(Nc1ccccc1Cl)NC1CCN(Cc2ccccc2)CC1 | inactive
9 | Cc1c(C(=O)Nc2ccncc2)sc2nc(-c3ccccc3)cn12 | active: 13 µM
10 | O=C(NCC1CCOCC1)c1cc(COc2cccc(C(F)(F)F)c2)on1 | active: 16.4 µM
11 | CCOC(=O)Cc1nnc(NC(=O)c2ccco2)s1 | inconclusive: 22.4 µM [activator, single point]
12 | O=C(c1ccc2c(c1)N(Cc1ccccc1F)C(=O)c1ccccc1S2)N1CCOCC1 | inactive
13 | O=C(CCCCCN1C(=O)c2ccccc2C1=O)Nc1nccs1 | inconclusive: 23.1 µM [inhibitor, partial curve, poor fit]
14 | COC(=O)c1ccc([C@@H]2C[C@H]3CN(Cc4cccnc4)C(=O)[C@]34CCCN24)cc1 | inactive
15 | O=C(c1cc(-c2ccco2)on1)N1CCOCC1 | inconclusive: 20.6 µM [activator, partial curve]
16 | COc1ccc(C(=O)N2CCN(CCc3ccccc3)CC2)cc1[N+](=O)[O-] | inactive
17 | CCCN(CC1CC1)C(=O)COC(=O)c1oc2ccc(OCC)cc2c1C | inconclusive: 35.5 µM [inhibitor, single point]
18 | CCOC(=O)Cc1csc(/N=C/c2c(O)n(-c3ccc(C)cc3C)c(=O)c3ccccc23)n1 | inconclusive: 23.1 µM [inhibitor, partial curve]
19 | CC(C)C(=O)NCCc1nc2ccccc2n1CCCOc1ccc(Cl)cc1 | inconclusive: 20.6 µM [inhibitor, single point]
20 | CC(C)CN(CC(C)C)C(=O)CS(=O)(=O)Cc1ccccc1 | inconclusive: 18.4 µM [inhibitor, single point]
21 | COC(=O)C(CO)NC(=O)C(C)NC(=O)CNC(=O)OCc1ccccc1 (stereo not given) | inactive
22 | Cc1cccc(C)c1-n1nnnc1SCC(=O)c1c(N)n(C2CC2)c(=O)[nH]c1=O | inconclusive: 3.26 µM [inhibitor, partial curve, poor fit]
23 | COc1ccc(C(=O)NCC(=O)N2CC=C(c3ccccc3)CC2)cc1OC | inactive

Row | SMILES | Potency
24 | COc1ccc(S(=O)(=O)N2CCCCC2)cc1NC(=O)C1COc2ccccc2O1 (stereo not given) | active: 18.3 µM
25 | C=CCn1cc(/C=C/c2cc[n+](C)cc2)c2ccccc21 | inconclusive: 6.51 µM [inhibitor, single point]
26 | CCN(c1ccccc1)S(=O)(=O)c1ccc(C(=O)NCCc2ccc(S(N)(=O)=O)cc2)cc1 | inactive
27 | COc1ccc(/C=C/C(=O)OCC(=O)NCCc2ccccc2)c(OC)c1 | inconclusive: 4.61 µM [inhibitor, partial curve, poor fit]
28 | O=S(=O)(c1ccccc1)N1CCN(c2nnc(-c3ccccc3)c3ccccc23)CC1 | active: 23.1 µM
29 | Nc1nc(SCc2ccc(Br)cc2)n[nH]1 | inconclusive: 20.6 µM [activator, partial curve]
30 | CC(=O)Nc1ccc(S(=O)(=O)N(C)Cc2cnn(C)c2)cc1 | inactive
31 | O=C(c1cccs1)N(C(=O)c1cccs1)c1ccccn1 | inconclusive: 16.4 µM [activator, partial curve]
32 | Cc1cc(C)c(S(C)(=O)=O)c(Oc2ccccc2C)n1 | inconclusive: 11.6 µM [activator, partial curve, poor fit]
33 | COc1ccc(N2C(=O)CC(c3cc(OC)c(OC)c(OC)c3)CC2=O)cc1 | inconclusive: 20.6 µM [inhibitor, single point]
34 | COc1ccc(/C(=C/c2ccc(OC(F)F)c(OC)c2)C(=O)O)cc1OC | inconclusive: 23.1 µM [activator, partial curve, poor fit]
35 | O=C(O)C1(S(=O)(=O)CCC(F)=C(F)F)CC1 | inactive
36 | O=C(C1=C[C@H](c2ccc(Br)cc2)C[C@H](OCc2ccc(CO)cc2)O1)N1CCN(Cc2ccc3c(c2)OCO3)CC1 | active: 9.2 µM
37 | CCN1CCCC1CN(Cc1cc2ccc(C)cc2[nH]c1=O)C(=S)Nc1ccc(OC)cc1 (stereo not given) | inconclusive: 32.6 µM [activator, partial curve, poor fit]
38 | CCC(CO)Oc1cc(NC(=O)Cc2ccccc2F)c2ncn(C(C)C)c2c1 (stereo not given) | inconclusive: 18.3 µM [inhibitor, partial curve, poor fit]
39 | O=c1cc(-c2ccccc2Cl)oc2c(NS(=O)(=O)c3cc(Cl)cc(Cl)c3O)ccc(O)c12 | inconclusive: 20.6 µM [inhibitor, partial curve]
40 | CCOC(=O)CN1C(=O)CN(c2ccc(C)cc2)C1=O | inconclusive: 16.4 µM [activator, partial curve]
41 | CCN(CC(=O)Nc1ccc2c(c1)OCCO2)C(=O)/C=C/c1ccc([N+](=O)[O-])cc1 | inconclusive: 29.1 µM [inhibitor, single point]
42 | COC(=O)c1cc(C(=O)NC(C)C2CC3CCC2C3)cc([N+](=O)[O-])c1 (stereo not given) | inconclusive: 23.1 µM [inhibitor, partial curve, poor fit]
43 | CCOc1cc(N2CCOCC2)c(OCC)cc1NC(=O)COc1cccc(CC)c1 | active: 23.1 µM
44 | O=C(NNC(=O)c1ccc2nc[nH]c2c1)c1ccccc1 | inactive
45 | O=[N+]([O-])c1cccc(-c2csc(N/N=C/c3cccc(O)c3)n2)c1 | inconclusive: 29.1 µM [inhibitor, single point]

Single entries from above.
`O=C(O)C1(S(=O)(=O)CCC(F)=C(F)F)CC1` – Potency: inactive
`COc1ccc(/C(=C/c2ccc(OC(F)F)c(OC)c2)C(=O)O)cc1OC` – Potency: inconclusive: 23.1 µM [activator, partial curve, poor fit]
`CCC(CO)Oc1cc(NC(=O)Cc2ccccc2F)c2ncn(C(C)C)c2c1` (stereo not given) – Potency: inconclusive: 18.3 µM [inhibitor, partial curve, poor fit]
